The values below come from ChEMBL document CHEMBL3739365, “Isolation and Structure of Kurahyne B and Total Synthesis of the Kurahynes” (J Nat Prod, 2015).

This experiment relates to HeLa. Description: Growth inhibition of human HeLa cells after 72 hrs by MTT assay. Type of experiment: functional, cell-based.

Structures are written as SMILES. Where a name gives a salt, the structure may show the parent alone.

For orientation: IC50 means the midpoint of a concentration-inhibition curve. The low end stands for greater potency in that assay, the high end for weaker potency in that assay. `COc1cccc2c1C(=O)c1c(O)c3c(c(O)c1C2=O)C[C@@](O)(C(=O)CO)C[C@@H]3O[C@H]1C[C@H](N)[C@H](O)[C@H](C)O1` [DOXORUBICIN HYDROCHLORIDE] displayed an IC50 of 500 nM.
